Positions count from the first letter of the chain named. The exact form of at least one protein or probe is not confirmed. At least one verdict rests on a figure or table, not on a statement of the authors. Where a protein sequence is shown, tags need not be part of it.

For one series, the target named is T1, GR DBD wild type (rat) (UniProt P06536).
T1 sequence (looked up): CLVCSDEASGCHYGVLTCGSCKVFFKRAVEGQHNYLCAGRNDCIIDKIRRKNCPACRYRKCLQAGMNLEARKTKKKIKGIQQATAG
Kind of series: EMSA. To be noted: value only in figure; EMSA: 20 mM Tris pH 7.5, 2 mM MgCl2, 1 mM EDTA, 10% glycerol, 0.3 mg/ml BSA, 4 mM DTT, 0.05 ug/ul dIdC, 1.25 nM DNA, 30 min; recombinant protein; residues 440-525; label: Cy5 5' of strand 1.

Series [1] has as its target T2, GR DBD A477T (dim mutant) (rat) (UniProt P06536).
T2 sequence (looked up): T1 sequence (looked up) with A38T
Kind of series: NMR (15N-HSQC). To be noted: NMR: 20 mM Na phosphate, 100 mM NaCl, 1 mM DTT, pH 6.7, 5% D2O, imino titration at 25 C; recombinant protein; residues 440-525.

As for “TACTAAGAACATTTTGTACGTATCG (double strand) [TA-Cgt-TA EMSA]”, the binding result with GR DBD wild type (rat) is on record as “binds”.
As for “GCCAAGAACATTTTGTACGTCTCG (double strand) [Cgt A-T NMR]”, the binding result in series [1] was “binds”.
On the same count and under the same terms, the same measure for “GCCGAGAACATTTTGTACGCCTCG (double strand) [Cgt G-C NMR]”: “binds”.
With “TACCAAGAACATTTTGTACGTCTCG (double strand) [CA-Cgt-TC EMSA]”, the binding result with GR DBD wild type (rat) is “binds”.

Source of the values: article PMC5025757, “Sequences flanking the core-binding site modulate glucocorticoid receptor structure and activity”.
